Data reported in paper PMC10163288.
Some of the results follow.

B1: il2ra_site1_2b5i_normal_mot_HHH_b2_03466_af2_000000069_0001_42_56_H_._HHH_b1_06107_0001_0000300010_0000001_0_af2pred_0001_af2pred_1 (protein)
chain: SSSSDERREELRELLEEALELIRNGNPEEARKVLEKAEELAEELNDRAMLKLIRLALEEVSSSSS
B2: il2ra_site2_2erj_normal_mot_11d5c034b8d8655e840008a001915456_0001_af2_000000095_0001_16_32_H_._HHH_b1_02299_0001_0000300011_0000001_0 (protein)
chain: SSSSDEEERRVNKLLREAIELFQEGNPEEAEKLLEEALELARELGDPRLQEAVEFALHVLRSSSS
B3: il2ra_site1_2b5i_sap_12_mot_HHH_b1_03134_af2_000000081_0001_1_21_H_._HHH_b2_02519_0001_0000200009_0000001_0_0001_af2pred_dldesign_0_af2pred (protein)
chain: SSSSSGFAREGLLKANEAFQNENAEELKKLLEEMKKLAEETKDPNLVRVAKLIEAALEELSSSSS
B4: il2ra_site1_3nfp_sap_8_mot_HHH_b1_01335_af2_000000105_0001_39_53_H_._HHH_b2_06296_0001_0000300022_0000001_0_0001 (protein)
chain: NDAEQASKIIEEALKSLGAKSFEVEVENNEVTVTVEGDDERSREVREAAKHVAKAVGVPVEVESE
B5: il2ra_site1_1z92_sap_19_mot_HHH_b1_02658_af2_000000167_0001_43_56_H_._HEEHE_3358_0001_0000100005_0000001_0_0001_af2pred_0001_af2pred_swapped (protein)
chain: SARELLKQLEKELGDPREALRIALEFVERLAGDPRLAVQFLKRVLRKLNDPELEELLRELEEELR
B6: il2ra_site2_3nfp_sap_22_mot_HHH_b1_02226_af2_000000060_0001_38_52_H_._HHH_b1_01373_0001_0000300028_0000001_1_0001 (protein)
chain: SSSSDEEQREVEELLEEARKAIEEGDPYKAAQLLVEAAELIAKLNDEELARILLELFAELQSSSS
B7: il2ra_site2_3nfp_sap_21_mot_HHH_b1_01379_af2_000000227_0001_41_54_H_._HHH_b2_08355_0001_0000100001_0000001_0_0001 (protein)
chain: SSSSSDDEEIIRYAALAAKLARETVSEEDQEKLEELLRELEEEGDPRLAAELAQLAAELLSSSSS
B8: il2ra_site1_1z92_normal_mot_2548690152cc24afdf538b66510d0e06_0001_af2_000000007_0001_37_50_H_._66959ead3e6c57cb3ef8243f3eb758e0_0001_1_0001_0000100014_0000001_0 … (protein)
chain: NTSEELLREAVEKNDEEELREFIKLALEDAGDPRLVKQLLKILVKRLGLPPEVLERLEELLEELT
B9: il2ra_site2_2erj_normal_mot_HHH_b1_07975_000000000_0001_41_57_H_._HHH_b2_05199_af2_0001_0000500037_0000001_0 (protein)
chain: SSSSNEELRRLFELFNILLELLQEGDEEEFEKVLEEAKELAKELQSESAEEALEWLERLLSSSSS
B10: il2ra_site1_2b5i_normal_mot_HHH_b2_04910_000000118_0001_1_19_H_._HHH_b1_00058_af2_0001_0000700020_0000001_0_af2pred_dldesign_0_af2pred (protein)
chain: SSSSSAVAEARELFLEADKLFQAGKEEEALKKLEEALRLATEAGAKLLVRIIELAIENLKSSSSS
B11: il2ra_site1_1z92_sap_17_mot_HHH_b2_05238_af2_000000252_0001_38_55_H_._HHH_b1_02400_0001_0000200030_0000001_0_0001_af2pred_dldesign_0_af2pred (protein)
chain: SSSSSSREVAADRLVDYFVEANGLSEEQRAELRARARAMVAAGVSPIEIAEWLQELSKKLSSSSS
B12: il2ra_site2_3nfp_normal_mot_HHH_b2_05281_000000198_0001_39_56_H_._HHH_b1_08465_0001_0000200009_0000001_0 (protein)
chain: SSSSDLEEEVRELLKRAEELLEKGNPEEARKLIAEAVQLVYENRNAELFYLVAEVAFKLHQSSSS
B13: il2ra_site1_3nfp_normal_mot_eb5a5eebac1e5153f932cc6c3f4b2787_0001_af2_000000100_0001_18_33_H_._3adf794c310dfc5b06560a56f1fbbe6f_0001_1_0001_0000100005_0000001_0 … (protein)
chain: NAERLLEELIRAAEERGDEEVVEFLRELLRLLREGDPEAYKLVEELAEVAAKDLEKALELAKELR
B14: il2ra_site1_3nfp_sap_11_mot_HHH_b2_05178_af2_000000174_0001_1_19_H_._HHH_b2_07388_0001_0000100002_0000001_0_0001_af2pred_0001_af2pred (protein)
chain: SLEHLERALRQVARADPIAEELLRLLEELRERGVPPEEVLELLLELARELGDPALRYLIEAVLSK
B15: il2ra_site2_3nfp_normal_mot_0e529dd47276c7fc43eae82927e5780b_0001_af2_000000030_0001_35_48_H_._1ca096cc36b46ebbf1faa9362c3fa206_0001_1_0001_0000100002_0000001_0 … (protein)
chain: PLEELKLEAFEKGDPDLRRLLLELRELAEERGIPPEEIEELLERIQEELNVPPEEAIEILIKELK
B16: il2ra_site1_3nfp_normal_mot_HHH_b2_04366_af2_000000103_0001_1_19_H_._d3e5e791db42274430e6ef9f54efc4f5_0001_af2_0001_0000100007_0000001_0_af2pred_0001_af2pred_sw … (protein)
chain: SAKEISELLREAARKDPEVSELLWEALRLFVKNEEEALRLLEELLKELGDPLVEEVLRLLEELAK
B17: il2ra_site2_2erj_normal_mot_HHH_b1_03609_af2_000000077_0001_42_55_H_._HHH_b1_08035_af2_0001_0000100002_0000001_0 (protein)
chain: SSSSDELEELRQRAEELIEEGDPEEALEVLREASELAFELGDFETWSEIAELLRLVARAESSSSS
B18: il2ra_site2_2erj_normal_mot_HHH_b1_06608_000000059_0001_22_39_H_._HHH_b1_04589_0001_0001200014_0000001_0 (protein)
chain: SSSSDEEEVRELIKQAEELLEEGDPEKASRVVARAAFIVIELGNVELARRLFELAREIFEASSSS

biological target: il2ra, P01589; experiment: yeast display titration

Apparent Kd, inactive:
B1 no binding seen
B2 no binding seen
B3 no binding seen
B4 no binding seen
B5 no binding seen
B6 no binding seen
B7 no binding seen
B8 no binding seen
B9 no binding seen
B10 no binding seen
B11 no binding seen
B12 no binding seen
B13 no binding seen
B14 no binding seen
B15 no binding seen
B16 no binding seen
B17 no binding seen
B18 no binding seen

Random excerpt: 2 entries already listed, in no set order.
Apparent Kd, inactive:
B10 no binding seen
B11 no binding seen
